Data as given in PubChem BioAssay AID743121 (NCATS, 2013)
The deposit covers about 26,000 reagents; shown is an unselected part. 167 of them (0.63%) count as active. 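Calls are per gene from RSA p-values that are not deposited; an individual active-marked siRNA can sensitise only weakly.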 A number with no mark means an inactive call. Reagents against one gene are numbered here. Not all columns of the deposit are shown.

Test: 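Genes whose silencing strengthens cell killing by camptothecin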 (primary screen)
System: MDA-MB-231 cells, a human breast cancer line
Reagents: single siRNA against human genes, 20 nM siRNA (0.8 pmol per well)
Time to read-out: 120 h (drug added 48 h after transfection, read 72 h later)
Treatment: camptothecin 20 nM (about EC30) for 72 h; vehicle 0.1% DMSO in parallel plates
Read-out: 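Cell viability by ATP luminescence (CellTiter-Glo) as % of non-targeting siRNA wells, and the log2 ratio of viability without drug over viability with camptothecin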
Direction: log2 vehicle/camptothecin viability: higher = stronger sensitisation to camptothecin
Call rule: 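Each gene scored by redundant siRNA activity (RSA) over its individual siRNA ratios; a gene is called active at p < 0.001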

target gene	siRNA no.	log2 vehicle/camptothecin viability
SCG3 (secretogranin III)	1	-0.226
SCG3 (secretogranin III)	2	-0.0663
SCG3 (secretogranin III)	3	-0.474
SCG3 (secretogranin III)	4	0.409
MGAT1	1	-0.268
MGAT1	2	-0.41
MGAT1	3	-0.204
TYRO3 (TYRO3 protein tyrosine kinase)	1	0.177
TYRO3 (TYRO3 protein tyrosine kinase)	2	-0.00811
TYRO3 (TYRO3 protein tyrosine kinase)	3	-0.505
TYRO3 (TYRO3 protein tyrosine kinase)	4	0.296
AIFM3 (AIF family member 3)	1	-0.483 (active)
AIFM3 (AIF family member 3)	2	-0.257 (active)
AIFM3 (AIF family member 3)	3	2.41 (active)
AIFM3 (AIF family member 3)	4	0.0331 (active)
MARCHF8 (membrane associated ring-CH-type finger 8)	1	-0.362
MARCHF8 (membrane associated ring-CH-type finger 8)	2	-0.154
MARCHF8 (membrane associated ring-CH-type finger 8)	3	-0.00462
MARCHF8 (membrane associated ring-CH-type finger 8)	4	-0.0564
AK2 (adenylate kinase 2)	1	-0.455
AK2 (adenylate kinase 2)	2	-0.424
AK2 (adenylate kinase 2)	3	-0.0966
AK2 (adenylate kinase 2)	4	-0.117
AK2 (adenylate kinase 2)	5	-0.317
AK2 (adenylate kinase 2)	6	-0.352
AK2 (adenylate kinase 2)	7	-0.464
AK2 (adenylate kinase 2)	8	-0.309
ITGA4 (integrin subunit alpha 4)	1	-0.341
ITGA4 (integrin subunit alpha 4)	2	0.21
ITGA4 (integrin subunit alpha 4)	3	-0.631
ITGA4 (integrin subunit alpha 4)	4	-0.0608
CDKL2 (cyclin dependent kinase like 2)	1	0.0439
CDKL2 (cyclin dependent kinase like 2)	2	-0.313
CDKL2 (cyclin dependent kinase like 2)	3	0.363
CDKL2 (cyclin dependent kinase like 2)	4	-0.0493
CD207 (CD207 molecule)	1	-0.0916
CD207 (CD207 molecule)	2	-0.009
CD207 (CD207 molecule)	3	-0.108
LAT (linker for activation of T cells)	1	-0.589
LAT (linker for activation of T cells)	2	-0.339
LAT (linker for activation of T cells)	3	-0.168
LAT (linker for activation of T cells)	4	-0.229
PLA2R1 (phospholipase A2 receptor 1)	1	-0.163
PLA2R1 (phospholipase A2 receptor 1)	2	-0.121
PLA2R1 (phospholipase A2 receptor 1)	3	0.123
PLA2R1 (phospholipase A2 receptor 1)	4	0.0845
EPHA3 (EPH receptor A3)	1	-0.204
EPHA3 (EPH receptor A3)	2	-0.195
EPHA3 (EPH receptor A3)	3	-0.587
EPHA3 (EPH receptor A3)	4	0.0294
FAM3B (FAM3 metabolism regulating signaling molecule B)	1	-0.567
FAM3B (FAM3 metabolism regulating signaling molecule B)	2	-0.734
FAM3B (FAM3 metabolism regulating signaling molecule B)	3	-0.0972
FAM3B (FAM3 metabolism regulating signaling molecule B)	4	0.0682
ABCA8 (ATP binding cassette subfamily A member 8)	1	0.151
ABCA8 (ATP binding cassette subfamily A member 8)	2	0.114
ABCA8 (ATP binding cassette subfamily A member 8)	3	-0.287
ABCA8 (ATP binding cassette subfamily A member 8)	4	-0.0721
OXSM (3-oxoacyl-ACP synthase, mitochondrial)	1	-0.0831
OXSM (3-oxoacyl-ACP synthase, mitochondrial)	2	0.336
OXSM (3-oxoacyl-ACP synthase, mitochondrial)	3	0.000417
OXSM (3-oxoacyl-ACP synthase, mitochondrial)	4	-0.0356
GPR26 (G protein-coupled receptor 26)	1	-0.361
GPR26 (G protein-coupled receptor 26)	2	-0.186
GPR26 (G protein-coupled receptor 26)	3	0.657
GPR26 (G protein-coupled receptor 26)	4	0.202
IFNA8 (interferon alpha 8)	1	0.249
IFNA8 (interferon alpha 8)	2	-0.69
IFNA8 (interferon alpha 8)	3	0.162
IFNA8 (interferon alpha 8)	4	-0.256
